Experimental data published in US11524012B1, “Quinolone analogs and their salts, compositions, and method for their use” (Senhwa Biosciences, Inc., priority 2018, dated 2022).
Some entries share one result that the patent states for a list of compounds.

Test system: DLD-1 BRCA2−/− (HD 105-007)
Assay: Anti-proliferation assay 144 h (ATPlite)
Assay type: cell-based
Method: The sensitivity of DLD-1 Parental and BRCA2−/− isogenic cell lines Compound I and Compounds 1 and 7-10 were evaluated in 144 h proliferations assays. Cells were seeded into 384-well plates in McCoy's 5A medium supplemented with 10% FBS at the seeding densities indicated below and allowed to adhere overnight prior to addition of compound or vehicle control. Compounds were weighed out and stock solutions in DMSO were made immediately prior to treatment of cells. Serial dilutions of compounds were prepared in DMSO and diluted in media before being added to cells in quadruplicate to give the final concentrations indicated on graphs (10 μM top concentration, 9-point semi-log dilution series, 0.2% DMSO final concentration for all treatments). Cells were incubated with compounds for 144 h at 37° C., 5% C02 in a humidified atmosphere. At the assay endpoint, ATPlite (Perkin Elmer) reagent was added at a volume equal to the volume of cell culture medium already present in each well and the plates processed as per the manufacturer's instructions. Media only background values were subtract and ted and the data was analyzed using a 4-parameter logistic equation in GraphPad Prism. DLD-1 Parental (HD PAR-008) DLD-1 BRCA2−/− (HD 105-007) used.

Row | Structure (SMILES) | sensitivity of the BRCA2 null line relative to the parental line (in words)
1 | Cc1cnc(CNC(=O)c2c(=O)c3ccc(N4CCCNCC4)nc3n3c2sc2ccccc23)cn1 [Compound 7, 2-(1,4-diazepan-1-yl)-N-((5-methylpyrazin-2-yl)methyl)-5-oxo-5H-benzo[4,5]thiazolo[3,2-a][1,8]naphthyridine-6-carboxamide] | highly/moderately sensitive
2 | CN1CCCN(c2ccc3c(=O)c(C(=O)NCCCN4CCCCCC4=O)c4sc5ccccc5n4c3n2)CC1 [Compound 8, 2-(4-methyl-1,4-diazepan-1-yl)-N-(3-(2-oxoazepan-1-yl)propyl)-5-oxo-5H-benzo[4,5]thiazolo[3,2-a][1,8]naphthyridine-6-carboxamide] | highly/moderately sensitive
3 | Cc1cnc(CNC(=O)c2c(=O)c3ccc(N4CCC[N+](C)([O-])CC4)nc3n3c2sc2ccccc23)cn1 (stereo not shown) [Compound 9, 2-(4-methyl-4-oxidodiazepan-4-ium-1-yl)-N-((5-methylpyrazin-2-yl)methyl)-5-oxo-5H-benzo[4,5]thiazolo[3,2-a][1,8]naphthyridine-6-carboxamide] | highly/moderately sensitive
4 | Cc1cnc(C(=O)NC(=O)c2c(=O)c3ccc(N4CCCN(C)CC4)nc3n3c2sc2ccccc23)cn1 [Compound 10, 2-(4-methyl-1,4-diazepan-1-yl)-N-((5-methylpyrazin-2-yl)carbonyl)-5-oxo-5H-benzo[4,5]thiazolo[3,2-a][1,8]naphthyridine-6-carboxamide] | highly/moderately sensitive
